This test deals with BDF1 mice, P388 leukemia ip, median survival T/C. The test can be described thus: NCI In Vivo Anticancer Drug Screen. Data for tumor model P388 Leukemia (intraperitoneal) in B6D2F1 (BDF1) mice. The note with it: T/C endpoint: median survival time, higher T/C = longer survival. In outline: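 Read-out is survival of treated animals expressed relative to the vehicle group, as a T/C ratio.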

Setting [1] is: dose: 50.0 mg/kg/injection, schedule: Q01DX005 (ip), vehicle: Klucel (hydroxypropylcellulose) (HPC).
Setting [2] is: dose: 50.0 mg/kg/injection, schedule: Q01DX009 (ip), vehicle: Klucel (hydroxypropylcellulose) (HPC).
The mark [3] stands for this setting: dose: 50.0 mg/kg/injection, schedule: Q04DX002 (ip), vehicle: Klucel (hydroxypropylcellulose) (HPC).
Where [4] appears, read: dose: 50.0 mg/kg/injection, schedule: Q04DX003 (ip), vehicle: Klucel (hydroxypropylcellulose) (HPC).
The mark [5] stands for this setting: dose: 100.0 mg/kg/injection, schedule: Q01DX001 (ip), vehicle: Klucel (hydroxypropylcellulose) (HPC).
Where [6] appears, read: dose: 100.0 mg/kg/injection, schedule: Q01DX009 (ip), vehicle: Klucel (hydroxypropylcellulose) (HPC).
[7] abbreviates: dose: 100.0 mg/kg/injection, schedule: Q04DX002 (ip), vehicle: Klucel (hydroxypropylcellulose) (HPC).
Setting [8] is: dose: 100.0 mg/kg/injection, schedule: Q04DX003 (ip), vehicle: Klucel (hydroxypropylcellulose) (HPC).
Setting [9] is: dose: 200.0 mg/kg/injection, schedule: Q01DX001 (ip), vehicle: Klucel (hydroxypropylcellulose) (HPC).
Where [10] appears, read: dose: 200.0 mg/kg/injection, schedule: Q01DX005 (ip), vehicle: Klucel (hydroxypropylcellulose) (HPC).
The mark [11] stands for this setting: dose: 200.0 mg/kg/injection, schedule: Q01DX009 (ip), vehicle: Klucel (hydroxypropylcellulose) (HPC).
Setting [12] is: dose: 200.0 mg/kg/injection, schedule: Q04DX002 (ip), vehicle: Klucel (hydroxypropylcellulose) (HPC).
Where [13] appears, read: dose: 200.0 mg/kg/injection, schedule: Q04DX003 (ip), vehicle: Klucel (hydroxypropylcellulose) (HPC).
Where [14] appears, read: dose: 400.0 mg/kg/injection, schedule: Q01DX001 (ip), vehicle: Klucel (hydroxypropylcellulose) (HPC).
Setting [15] is: dose: 400.0 mg/kg/injection, schedule: Q01DX005 (ip), vehicle: Klucel (hydroxypropylcellulose) (HPC).
The mark [16] stands for this setting: dose: 400.0 mg/kg/injection, schedule: Q01DX009 (ip), vehicle: Klucel (hydroxypropylcellulose) (HPC).
Where [17] appears, read: dose: 400.0 mg/kg/injection, schedule: Q04DX002 (ip), vehicle: Klucel (hydroxypropylcellulose) (HPC).
Setting [18] is: dose: 400.0 mg/kg/injection, schedule: Q04DX003 (ip), vehicle: Klucel (hydroxypropylcellulose) (HPC).

The list shows only some results of the screen, not a fair sample: it gathers tests that were run many times, whatever their T/C, doses with no T/C, and many T/C values between a quarter and a half above the control. Other doses and runs of a compound stand elsewhere. T/C is the treated group as % of the vehicle group. Some entries give survivors of the animals treated and no T/C: the source holds a T/C of zero for them, seemingly a mark for toxic or unscored doses. Some doses without a T/C left all or most animals alive at the check, yet need not have been tolerated: survival well below the control is almost never listed, so the zero probably covers shortened survival too. Counts of survivors are from the toxicity check (mostly the fifth day) where no day follows; animals may have died later. Schedule codes are those of the source, read here as Q, the interval in days (D) or hours (H), X, the number of doses. Some doses were run more than once; their values stand side by side, smallest first. For survival time, the PubChem record calls one and a half times the control and up active, and a quarter to a half above the control has no call in these data; cut-offs in other NCI protocols can differ. Some T/C values carry the count of animals alive at the toxicity check (mostly the fifth day); where none is given, no animal had died by that day. Signs of the kind (2×) count equal records among those shown.

`C[C@]12C=CC(=O)C=C1CC[C@@H]1[C@@H]2C(=O)C[C@@]2(C)[C@H]1CC[C@]2(O)C(=O)CO`: the survivor count runs as follows: (dose: 3.12 mg/kg/injection, schedule: Q01DX009 (ip), vehicle: carboxymethylcellulose (CMC)) 10 of 10; (dose: 25.0 mg/kg/injection, schedule: Q01DX009 (ip), vehicle: carboxymethylcellulose (CMC)) 8 of 10 and 10 of 10; under setting [1], 6 of 6; under setting [2], 2 of 3 and 3 of 3; under setting [3], 3 of 3 and 6 of 6; under setting [4], 3 of 3 and 6 of 6. In addition, the survivor count is, setting by setting: under setting [5], 3 of 6; under setting [6], 3 of 3 and 6 of 6; under setting [7], 3 of 3; under setting [8], 3 of 3 and 6 of 6; under setting [9], 3 of 3; under setting [10], 3 of 6, 2 of 3, 6 of 6. In addition, the survivor count under setting [11] is given as 5 of 6, 3 of 3, 6 of 6; the survivor count under setting [12] was 2 of 3; the survivor count under setting [13] is listed as 3 of 3; the survivor count under setting [14] is 6 of 6; the survivor count under setting [15] is given as 3 of 6, 2 of 3, 5 of 6, 3 of 3, 6 of 6; the survivor count under setting [16] was 2 of 6, 5 of 6, 2 of 2, 3 of 3, 6 of 6. In addition, the survivor count is 3 of 3 under setting [17]; 3 of 3 and 6 of 6 under setting [18]. The T/C is 87, 89, 91, 94, 95 (2×), 96, 97, 98, 99 (2×), 100 (4×), 102 (3×), 103 (2×), 105, 106, 107 (2×), 108, 111, 116, 125 % of control (dose: 50.0 mg/kg/injection, schedule: Q01DX001 (ip), vehicle: Klucel (hydroxypropylcellulose) (HPC)); 86, 87, 88 (2×), 90, 94 [2 of 3 alive], 97, 99, 101, 102, 103, 105, 106, 107, 108 (2×), 110, 111 (3×), 112, 113 (2×), 114, 115, 116, 117 (2×), 118, 119, 125, 126, 128, 137 % of control under setting [1]; 86 (2×), 88, 90, 92, 93 (2×), 94 (2×), 95, 97, 98, 100, 101, 101 [5 of 6 alive], 103 (3×), 104, 106, 107, 108, 109, 110 (3×), 113, 115 (2×), 119, 140 % of control under setting [2]; 94, 100 (4×), 101, 103 (3×), 104, 105 (2×), 106 (2×), 107, 108, 109 (2×), 110, 111, 112, 113, 115 (2×), 115 [2 of 3 alive], 116, 119, 120, 121, 122 (2×), 130 % of control under setting [3]; 87, 91, 94 (2×), 95, 96, 98, 100, 103 (3×), 105, 106, 107 (3×), 108, 110 (3×), 111 (3×), 112 (2×), 114 (2×), 115 (2×), 117 (2×), 118, 122, 125 % of control under setting [4]; 88, 90, 94 (2×), 95 (2×), 96 (2×), 98, 100 (2×), 101, 103, 104, 105 (2×), 106, 107, 110, 111, 113, 116, 117, 118, 119, 122, 123 % of control under setting [5]. Also, the T/C is, setting by setting: (dose: 100.0 mg/kg/injection, schedule: Q01DX005 (ip), vehicle: Klucel (hydroxypropylcellulose) (HPC)) 90 [5 of 6 alive], 94, 94 [5 of 6 alive], 97 [2 of 3 alive], 99, 100 (3×), 102, 103 (3×), 106 (2×), 106 [2 of 3 alive], 107, 108, 109, 110 (3×), 111, 112, 113 (2×), 114 (3×), 117, 119, 120, 120 [5 of 6 alive], 123, 125, 146 % of control; under setting [6], 86 (2×), 87, 88 (2×), 94, 96 [4 of 6 alive], 98, 100, 101 (3×), 102 (2×), 103, 106 (3×), 108, 109, 110 (3×), 113 (2×), 116, 119 % of control; under setting [7], 88, 90, 99, 100 (2×), 102 (3×), 103 (2×), 105 (2×), 106 (3×), 107, 109 (2×), 111 [5 of 6 alive], 112 (2×), 114, 115 (3×), 116 (3×), 120 (4×), 123 % of control; under setting [8], 91, 94, 96, 98 (2×), 99, 101, 102, 103 (2×), 104 (2×), 105, 106, 108, 110, 111 (4×), 113, 115 (2×), 116 (2×), 117 (2×), 118 (2×), 120 (2×), 122, 125, 127 % of control; under setting [9], 90, 95, 97, 98, 99, 100, 101 (2×), 102, 103 (2×), 104 (2×), 106 (4×), 108, 111 (2×), 113 (2×), 116, 117, 119, 121, 122 % of control; under setting [10], 89 [5 of 6 alive], 91, 95, 97, 100 (2×), 101, 102, 103 (3×), 104, 105 (2×), 106, 107 (4×), 108, 108 [2 of 3 alive], 110, 111 (2×), 112, 116, 116 [5 of 6 alive], 117 (2×), 119, 121, 121 % of control [2 of 3 alive]. The T/C runs as follows: under setting [11], 86, 87, 88, 88 [5 of 6 alive], 89 [5 of 6 alive], 92 (2×), 93 (2×), 94, 95, 98, 100, 103 (2×), 104, 106, 107, 108 (2×), 110, 112, 120, 122, 123 % of control; under setting [12], 95, 97, 100 (3×), 101 (2×), 102 (2×), 103, 104, 105, 106, 107 (2×), 107 [5 of 6 alive], 109, 110 (2×), 111, 111 [5 of 6 alive], 112 (2×), 114, 115 (2×), 116, 118, 119, 120, 122, 123, 132 % of control; under setting [13], 88 (2×), 95, 96 (2×), 98, 99, 101, 102, 104 (2×), 105 (2×), 106, 108, 109 (4×), 110, 111 (4×), 112, 114 (2×), 116 (2×), 118, 120, 125, 126, 140 % of control; under setting [14], 86, 99, 101 (3×), 102 (2×), 103, 104 (3×), 106, 108 (2×), 109 (2×), 110 (3×), 111 (2×), 111 [5 of 6 alive], 112, 115, 117 (2×), 126 % of control; under setting [15], 88, 88 [5 of 6 alive], 91 (2×), 92, 93, 96, 97, 100 (2×), 100 [5 of 6 alive], 101 (3×), 103 (2×), 105, 107, 108, 109 (3×), 110, 117, 122, 128 % of control; under setting [16], 86 (2×), 90, 92, 93, 94, 95, 97 (4×), 98, 102 (2×), 106, 108 (2×), 114 % of control. For the same compound, the T/C is 95, 97 (2×), 99, 100, 101 (2×), 102 (3×), 103 (2×), 104 (2×), 106 (2×), 107 (2×), 109 (2×), 110, 111, 112, 113, 114, 115, 116, 117 (3×), 120, 125, 130 % of control under setting [17] and 94, 96, 99, 100, 101 (2×), 102 (2×), 103 (3×), 105 (3×), 106 (2×), 108, 109, 110 (2×), 111, 112 (2×), 113, 114 (3×), 115, 117, 119, 120, 127, 130 % of control under setting [18].
Take `CC1CC[N-]CC1.CC1CC[N-]CC1.[Br][Pt+2]([Br])([Br])[Br]`: the T/C (dose: 12.5 mg/kg/injection, schedule: Q01DX009 (ip), vehicle: saline with Tween-80) was 139 % of control; the T/C (dose: 12.5 mg/kg/injection, schedule: Q04DX003 (ip), vehicle: saline with Tween-80) was 138 % of control; the T/C (dose: 25.0 mg/kg/injection, schedule: Q04DX003 (ip), vehicle: saline with Tween-80) is 128 % of control. The survivor count reads like this: (dose: 25.0 mg/kg/injection, schedule: Q01DX009 (ip), vehicle: saline with Tween-80) 3 of 6; (dose: 50.0 mg/kg/injection, schedule: Q01DX009 (ip), vehicle: saline with Tween-80) 1 of 6.
Take `CN=C(NC)c1ccc(NC(=O)/C=C\c2ccc(C(=O)Nc3ccc(C(=NC)NC)cc3)cc2)cc1`: the T/C was 126 % of control (dose: 0.22 mg/kg/injection, schedule: Q01DX009 (ip), vehicle: saline with Tween-80); 145 % of control (dose: 0.33 mg/kg/injection, schedule: Q01DX009 (ip), vehicle: saline with Tween-80); 134 % of control (dose: 0.44 mg/kg/injection, schedule: Q01DX009 (ip), vehicle: saline with Tween-80); 149 % of control (dose: 0.66 mg/kg/injection, schedule: Q01DX009 (ip), vehicle: saline with Tween-80); 149 % of control (dose: 1.0 mg/kg/injection, schedule: Q01DX009 (ip), vehicle: saline with Tween-80); 125 % of control (dose: 3.0 mg/kg/injection, schedule: Q04DX003 (ip), vehicle: saline with Tween-80).
In the case of `NC(CCCC(=O)O)P(=O)(O)O` (stereo unspecified), the survivor count under setting [16] is 4 of 6.
Turning to `O=C1c2ccccc2-c2ncccc21`, under setting [18], the survivor count is 4 of 6.
`O=c1[nH]nnc2ccccc12`: the survivor count under setting [13] is 1 of 6; the survivor count (dose: 225.0 mg/kg/injection, schedule: Q01DX009 (ip), vehicle: Klucel (hydroxypropylcellulose) (HPC)) is given as 6 of 6; the survivor count under setting [18] is given as 0 of 6.
